Publication PMC4738311
No constants are given. Whether binding was seen depends on the method and setting. Binding seen in cells or lysates may run through a third protein. These calls come from enrichment with a bait or labelling near it, and not all partners need be listed.

By UniProt entry, the sequences of proteins in these tests, tags left out. Where a name states a change or a piece, a line headed by the entry shows the natural chain unless it says otherwise.
UniProt P63104: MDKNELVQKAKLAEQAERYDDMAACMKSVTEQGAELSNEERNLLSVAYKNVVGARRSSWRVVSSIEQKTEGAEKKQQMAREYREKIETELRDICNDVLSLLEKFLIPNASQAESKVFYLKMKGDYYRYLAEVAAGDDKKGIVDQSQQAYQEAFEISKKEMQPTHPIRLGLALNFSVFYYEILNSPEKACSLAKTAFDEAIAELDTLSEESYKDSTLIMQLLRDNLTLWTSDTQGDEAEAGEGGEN
UniProt P62333: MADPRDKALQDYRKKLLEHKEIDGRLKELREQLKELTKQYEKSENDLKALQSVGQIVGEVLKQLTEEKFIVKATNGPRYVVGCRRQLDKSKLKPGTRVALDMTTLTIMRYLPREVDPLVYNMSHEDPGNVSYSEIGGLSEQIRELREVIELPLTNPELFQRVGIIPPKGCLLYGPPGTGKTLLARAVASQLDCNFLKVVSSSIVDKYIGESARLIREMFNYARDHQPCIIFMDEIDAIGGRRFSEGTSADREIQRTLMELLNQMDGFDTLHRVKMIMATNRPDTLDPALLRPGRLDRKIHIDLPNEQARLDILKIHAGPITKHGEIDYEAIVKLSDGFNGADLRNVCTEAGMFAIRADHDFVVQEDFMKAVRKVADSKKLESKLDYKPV
UniProt Q00610: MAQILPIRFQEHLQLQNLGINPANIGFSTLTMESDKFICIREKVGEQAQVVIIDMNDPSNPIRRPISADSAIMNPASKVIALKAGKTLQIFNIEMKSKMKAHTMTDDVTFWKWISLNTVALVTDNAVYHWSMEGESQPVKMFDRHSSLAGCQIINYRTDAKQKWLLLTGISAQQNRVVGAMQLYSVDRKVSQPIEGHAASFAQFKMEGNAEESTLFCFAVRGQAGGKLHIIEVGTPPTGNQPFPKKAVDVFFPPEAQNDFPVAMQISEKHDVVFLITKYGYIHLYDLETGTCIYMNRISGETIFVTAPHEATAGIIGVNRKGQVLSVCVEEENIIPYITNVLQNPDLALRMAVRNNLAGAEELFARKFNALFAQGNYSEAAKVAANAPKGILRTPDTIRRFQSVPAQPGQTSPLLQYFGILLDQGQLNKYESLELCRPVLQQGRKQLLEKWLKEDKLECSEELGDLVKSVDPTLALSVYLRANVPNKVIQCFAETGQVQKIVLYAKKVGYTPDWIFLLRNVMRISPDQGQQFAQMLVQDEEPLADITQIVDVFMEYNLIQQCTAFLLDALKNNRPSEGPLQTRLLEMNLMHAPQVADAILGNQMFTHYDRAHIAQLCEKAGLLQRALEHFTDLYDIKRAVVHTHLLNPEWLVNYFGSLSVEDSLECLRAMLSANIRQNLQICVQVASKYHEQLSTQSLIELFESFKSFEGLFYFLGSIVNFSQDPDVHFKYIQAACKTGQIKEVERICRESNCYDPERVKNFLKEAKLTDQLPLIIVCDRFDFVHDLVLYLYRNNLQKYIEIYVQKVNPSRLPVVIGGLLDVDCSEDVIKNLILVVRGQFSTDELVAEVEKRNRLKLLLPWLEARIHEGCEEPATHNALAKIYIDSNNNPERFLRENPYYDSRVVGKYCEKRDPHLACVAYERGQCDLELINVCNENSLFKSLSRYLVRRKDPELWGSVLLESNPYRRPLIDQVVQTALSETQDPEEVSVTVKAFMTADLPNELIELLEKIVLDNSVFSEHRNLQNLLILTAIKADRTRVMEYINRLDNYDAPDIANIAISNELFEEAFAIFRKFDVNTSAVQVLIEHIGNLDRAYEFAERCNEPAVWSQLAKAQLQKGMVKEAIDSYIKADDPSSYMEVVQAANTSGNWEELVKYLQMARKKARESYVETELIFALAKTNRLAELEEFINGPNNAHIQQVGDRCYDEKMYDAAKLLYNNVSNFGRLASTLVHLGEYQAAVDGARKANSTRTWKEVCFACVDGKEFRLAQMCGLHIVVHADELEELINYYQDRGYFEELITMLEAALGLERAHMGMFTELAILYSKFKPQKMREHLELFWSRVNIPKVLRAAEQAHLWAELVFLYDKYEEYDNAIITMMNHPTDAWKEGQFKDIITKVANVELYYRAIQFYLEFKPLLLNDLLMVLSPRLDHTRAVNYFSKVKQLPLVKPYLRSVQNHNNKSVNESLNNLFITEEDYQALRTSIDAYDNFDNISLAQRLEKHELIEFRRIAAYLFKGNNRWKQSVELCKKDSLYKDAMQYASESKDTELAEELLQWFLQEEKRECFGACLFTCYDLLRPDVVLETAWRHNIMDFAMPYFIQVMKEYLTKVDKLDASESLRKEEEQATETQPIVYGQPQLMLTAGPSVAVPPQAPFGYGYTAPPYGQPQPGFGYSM
UniProt O95071: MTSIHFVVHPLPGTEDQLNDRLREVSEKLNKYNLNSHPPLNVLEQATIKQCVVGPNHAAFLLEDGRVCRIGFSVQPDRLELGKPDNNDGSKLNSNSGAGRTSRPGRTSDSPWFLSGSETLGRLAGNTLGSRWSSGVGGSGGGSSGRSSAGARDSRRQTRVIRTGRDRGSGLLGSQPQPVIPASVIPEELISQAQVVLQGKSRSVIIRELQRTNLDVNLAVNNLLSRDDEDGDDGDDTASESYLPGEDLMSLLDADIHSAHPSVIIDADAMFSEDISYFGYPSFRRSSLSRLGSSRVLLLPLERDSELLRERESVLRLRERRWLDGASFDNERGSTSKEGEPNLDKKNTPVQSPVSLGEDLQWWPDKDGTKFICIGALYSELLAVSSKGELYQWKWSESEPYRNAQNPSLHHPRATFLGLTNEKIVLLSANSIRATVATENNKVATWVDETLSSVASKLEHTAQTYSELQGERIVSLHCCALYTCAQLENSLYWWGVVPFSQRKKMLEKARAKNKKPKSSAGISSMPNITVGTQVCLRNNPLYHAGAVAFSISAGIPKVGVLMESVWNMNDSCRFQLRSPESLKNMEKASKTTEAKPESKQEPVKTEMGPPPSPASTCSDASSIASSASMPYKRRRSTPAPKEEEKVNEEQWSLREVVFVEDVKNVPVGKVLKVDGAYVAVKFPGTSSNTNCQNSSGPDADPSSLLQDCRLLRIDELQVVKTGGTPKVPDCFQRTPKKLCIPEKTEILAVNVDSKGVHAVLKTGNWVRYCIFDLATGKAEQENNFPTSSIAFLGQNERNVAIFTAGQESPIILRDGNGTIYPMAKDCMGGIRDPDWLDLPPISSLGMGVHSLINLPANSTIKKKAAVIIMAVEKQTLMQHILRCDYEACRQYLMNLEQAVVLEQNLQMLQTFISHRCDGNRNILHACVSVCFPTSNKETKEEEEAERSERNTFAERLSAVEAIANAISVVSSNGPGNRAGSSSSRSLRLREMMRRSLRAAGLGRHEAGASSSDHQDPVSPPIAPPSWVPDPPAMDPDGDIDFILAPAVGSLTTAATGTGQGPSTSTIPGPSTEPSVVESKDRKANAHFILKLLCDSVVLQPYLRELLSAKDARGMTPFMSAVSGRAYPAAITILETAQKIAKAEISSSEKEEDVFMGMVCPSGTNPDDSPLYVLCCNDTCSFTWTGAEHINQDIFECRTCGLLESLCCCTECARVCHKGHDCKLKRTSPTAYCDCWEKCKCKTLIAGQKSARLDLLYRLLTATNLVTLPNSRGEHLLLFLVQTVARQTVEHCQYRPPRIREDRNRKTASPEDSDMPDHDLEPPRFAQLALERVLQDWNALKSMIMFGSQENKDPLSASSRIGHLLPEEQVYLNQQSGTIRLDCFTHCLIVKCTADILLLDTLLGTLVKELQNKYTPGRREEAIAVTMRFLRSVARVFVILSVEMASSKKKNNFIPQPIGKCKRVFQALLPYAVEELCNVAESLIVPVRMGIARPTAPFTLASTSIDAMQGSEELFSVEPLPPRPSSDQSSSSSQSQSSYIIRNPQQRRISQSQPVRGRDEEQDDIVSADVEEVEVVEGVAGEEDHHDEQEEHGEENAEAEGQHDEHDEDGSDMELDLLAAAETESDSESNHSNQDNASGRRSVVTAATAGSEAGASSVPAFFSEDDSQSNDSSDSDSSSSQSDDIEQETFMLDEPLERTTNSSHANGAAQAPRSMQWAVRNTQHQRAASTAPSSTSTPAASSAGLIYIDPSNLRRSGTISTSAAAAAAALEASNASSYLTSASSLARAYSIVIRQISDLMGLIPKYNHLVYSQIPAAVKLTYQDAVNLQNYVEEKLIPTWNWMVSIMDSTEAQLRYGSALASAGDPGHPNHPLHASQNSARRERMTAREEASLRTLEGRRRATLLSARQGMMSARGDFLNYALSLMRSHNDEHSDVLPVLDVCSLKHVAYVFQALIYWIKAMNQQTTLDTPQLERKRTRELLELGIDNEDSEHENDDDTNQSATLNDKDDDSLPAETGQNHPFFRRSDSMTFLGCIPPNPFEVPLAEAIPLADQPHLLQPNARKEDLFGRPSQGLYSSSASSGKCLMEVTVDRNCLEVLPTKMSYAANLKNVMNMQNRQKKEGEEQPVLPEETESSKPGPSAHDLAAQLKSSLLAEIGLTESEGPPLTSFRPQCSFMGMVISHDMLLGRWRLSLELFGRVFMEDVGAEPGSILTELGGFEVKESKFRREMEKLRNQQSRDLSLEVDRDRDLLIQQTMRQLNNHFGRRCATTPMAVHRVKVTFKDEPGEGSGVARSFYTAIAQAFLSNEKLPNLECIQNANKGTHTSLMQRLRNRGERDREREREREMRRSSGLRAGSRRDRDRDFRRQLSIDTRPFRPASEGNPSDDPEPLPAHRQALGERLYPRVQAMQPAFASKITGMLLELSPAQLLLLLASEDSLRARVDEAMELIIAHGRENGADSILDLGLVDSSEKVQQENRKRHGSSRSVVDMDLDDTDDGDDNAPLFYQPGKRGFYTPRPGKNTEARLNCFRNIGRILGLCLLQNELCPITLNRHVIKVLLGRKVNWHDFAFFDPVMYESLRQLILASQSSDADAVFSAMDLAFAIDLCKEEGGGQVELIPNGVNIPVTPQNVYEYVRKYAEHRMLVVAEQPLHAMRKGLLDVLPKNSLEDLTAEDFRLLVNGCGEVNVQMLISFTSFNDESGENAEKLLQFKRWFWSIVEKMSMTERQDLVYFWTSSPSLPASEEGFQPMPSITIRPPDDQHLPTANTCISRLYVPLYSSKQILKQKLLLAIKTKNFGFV
UniProt Q12905: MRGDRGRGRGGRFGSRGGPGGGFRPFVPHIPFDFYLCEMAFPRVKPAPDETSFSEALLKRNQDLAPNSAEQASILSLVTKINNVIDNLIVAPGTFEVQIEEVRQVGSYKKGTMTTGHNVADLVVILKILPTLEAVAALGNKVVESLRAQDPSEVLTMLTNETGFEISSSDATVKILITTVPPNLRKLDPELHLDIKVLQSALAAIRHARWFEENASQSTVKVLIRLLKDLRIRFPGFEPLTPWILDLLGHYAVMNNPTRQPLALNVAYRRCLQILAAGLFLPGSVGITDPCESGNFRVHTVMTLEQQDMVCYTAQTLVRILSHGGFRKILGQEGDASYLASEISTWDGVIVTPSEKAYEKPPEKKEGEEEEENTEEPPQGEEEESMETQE
UniProt P33176: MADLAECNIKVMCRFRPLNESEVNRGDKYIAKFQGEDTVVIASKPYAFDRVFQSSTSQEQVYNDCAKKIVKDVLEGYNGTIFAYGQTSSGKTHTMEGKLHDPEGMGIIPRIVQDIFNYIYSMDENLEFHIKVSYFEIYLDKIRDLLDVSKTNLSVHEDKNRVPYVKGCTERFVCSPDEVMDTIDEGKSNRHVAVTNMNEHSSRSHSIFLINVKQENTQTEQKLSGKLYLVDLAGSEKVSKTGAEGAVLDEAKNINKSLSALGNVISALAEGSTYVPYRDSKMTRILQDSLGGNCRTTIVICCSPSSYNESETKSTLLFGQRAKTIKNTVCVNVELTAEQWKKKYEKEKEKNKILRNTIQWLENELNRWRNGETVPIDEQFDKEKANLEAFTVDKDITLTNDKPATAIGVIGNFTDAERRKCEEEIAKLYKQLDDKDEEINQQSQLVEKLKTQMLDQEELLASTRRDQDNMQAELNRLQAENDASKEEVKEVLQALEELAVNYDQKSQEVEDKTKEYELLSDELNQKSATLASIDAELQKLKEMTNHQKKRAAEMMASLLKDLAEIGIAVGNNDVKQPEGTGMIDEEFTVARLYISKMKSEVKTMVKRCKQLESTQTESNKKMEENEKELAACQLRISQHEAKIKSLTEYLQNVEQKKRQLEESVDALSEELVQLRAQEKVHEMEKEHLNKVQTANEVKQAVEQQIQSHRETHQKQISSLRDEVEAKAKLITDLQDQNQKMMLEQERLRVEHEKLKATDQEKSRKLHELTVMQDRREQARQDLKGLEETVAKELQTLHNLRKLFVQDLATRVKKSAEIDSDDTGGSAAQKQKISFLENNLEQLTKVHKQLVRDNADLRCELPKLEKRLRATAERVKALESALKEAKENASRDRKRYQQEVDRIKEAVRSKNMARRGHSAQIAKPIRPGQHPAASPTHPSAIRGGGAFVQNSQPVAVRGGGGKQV

Molecular target: Tyrosine-protein phosphatase non-receptor type 11 (SHP2) (human (endogenous in human cell lines)) (UniProt Q06124)
Assay: affinity purification with mass spectrometry; SHP2 IP analysed by LC-MS/MS; told only in the discussion, no method given

binding, binds:
p85α regulatory subunit of phosphoinositide-3-kinase (PI3K) (from UniProt P27986 1-724)

Molecular target: p85α regulatory subunit of phosphoinositide-3-kinase (PI3K) (human (endogenous in human cell lines)) (UniProt P27986)
Assay: affinity purification with mass spectrometry; IP of endogenous p85α (rabbit polyclonal antibody) from 10 mg lysate (0.5% NP-40) of human NSCLC and multiple myeloma lines under serum, starvation or kinase inhibitors, short SDS-PAGE, LC-MS/MS; hits kept after reciprocal BLAST and subtraction of rabbit IgG controls

binding, binds:
14-3-3 protein epsilon (from UniProt P62258 1-255)
14-3-3 protein zeta/delta (from UniProt P63104 1-245)
26S protease regulatory subunit 6A (from UniProt P17980 1-439)
26S protease regulatory subunit S10B (from UniProt P62333 1-389)
Activator of 90 kDa heat shock protein ATPase homolog 1 (from UniProt O95433 1-338)
Clathrin heavy chain 1 (from UniProt Q00610 1-1675)
Coatomer subunit alpha (from UniProt P53621 1-1224)
E3 ubiquitin-protein ligase UBR5 (from UniProt O95071 1-2799)
FACT complex subunit SSRP1 (from UniProt Q08945 1-709)
Glyceraldehyde-3-phosphate dehydrogenase (from UniProt P04406 1-335)
Interleukin enhancer-binding factor 2 (from UniProt Q12905 1-390)
Kinesin-1 heavy chain (from UniProt P33176 1-963)
Liprin-alpha-1 (from UniProt Q13136 1-1202)
Nascent polypeptide-associated complex subunit alpha, muscle-specific form (from UniProt E9PAV3 1-2078)
Nuclease-sensitive element-binding protein 1 (from UniProt P67809 1-324)
Nucleolar phosphoprotein p130 (from UniProt Q14978 1-699)
Platelet-derived growth factor receptor alpha (from UniProt P16234 24-1089)
Probable global transcription activator SNF2L4 (from UniProt P51532 1-1647)
Puromycin-sensitive aminopeptidase (from UniProt P55786 1-919)
Serine/threonine-protein phosphatase 2A 65 kDa regulatory subunit A alpha isoform (from UniProt P30153 1-589)
Splicing factor, arginine/serine-rich 1 (from UniProt Q07955 1-248)
Succinate dehydrogenase [ubiquinone] flavoprotein subunit, mitochondrial (from UniProt P31040 43-664)
Tyrosine-protein phosphatase non-receptor type 11 (SHP2) (from UniProt Q06124-2 1-593)
UDP-glucose:glycoprotein glucosyltransferase 1 (from UniProt Q9NYU2 43-1555)
